Measurements as given in PubChem BioAssay AID588497 (NMMLSC, 2011).
Screen size: about 360,000 compounds; about 780 (0.22%) were called active. The source calls these results inconclusive, neither active nor inactive. Cut-off read from the data, not from the text of the source: active = inhibition above about 35% (passing the limit was not always enough); inconclusive = no clear call, values can overlap the other calls. Some of these compounds have results that are not shown, active ones among them.

System: Botulinum neurotoxin type F light chain protease (Clostridium botulinum)
Assay: BoNT/F light chain protease inhibitors, primary screen, biochemical, flow cytometry, MLPCN library (AID 588497); note: plate controls were buffer without enzyme for full effect and enzyme alone for no effect
Conditions: Multiplex microsphere protease cleavage assay, at 10 µM, active compounds read high

Row | Structure (SMILES) | inhibition
1 | CN(C)c1ccc(C(=O)NCC2(N(C)C)CCCCC2)cc1 | inconclusive: -0.1%
2 | CC(C)N1C(=O)CC2(CCN(CCOC(=O)C(O)(c3ccccc3)c3ccccc3)CC2)C1=O | inconclusive: 10.7%
